Reference: paper PMC8570024

Amino acid sequences for entries named in this document (tags omitted).
UniProt Q93009: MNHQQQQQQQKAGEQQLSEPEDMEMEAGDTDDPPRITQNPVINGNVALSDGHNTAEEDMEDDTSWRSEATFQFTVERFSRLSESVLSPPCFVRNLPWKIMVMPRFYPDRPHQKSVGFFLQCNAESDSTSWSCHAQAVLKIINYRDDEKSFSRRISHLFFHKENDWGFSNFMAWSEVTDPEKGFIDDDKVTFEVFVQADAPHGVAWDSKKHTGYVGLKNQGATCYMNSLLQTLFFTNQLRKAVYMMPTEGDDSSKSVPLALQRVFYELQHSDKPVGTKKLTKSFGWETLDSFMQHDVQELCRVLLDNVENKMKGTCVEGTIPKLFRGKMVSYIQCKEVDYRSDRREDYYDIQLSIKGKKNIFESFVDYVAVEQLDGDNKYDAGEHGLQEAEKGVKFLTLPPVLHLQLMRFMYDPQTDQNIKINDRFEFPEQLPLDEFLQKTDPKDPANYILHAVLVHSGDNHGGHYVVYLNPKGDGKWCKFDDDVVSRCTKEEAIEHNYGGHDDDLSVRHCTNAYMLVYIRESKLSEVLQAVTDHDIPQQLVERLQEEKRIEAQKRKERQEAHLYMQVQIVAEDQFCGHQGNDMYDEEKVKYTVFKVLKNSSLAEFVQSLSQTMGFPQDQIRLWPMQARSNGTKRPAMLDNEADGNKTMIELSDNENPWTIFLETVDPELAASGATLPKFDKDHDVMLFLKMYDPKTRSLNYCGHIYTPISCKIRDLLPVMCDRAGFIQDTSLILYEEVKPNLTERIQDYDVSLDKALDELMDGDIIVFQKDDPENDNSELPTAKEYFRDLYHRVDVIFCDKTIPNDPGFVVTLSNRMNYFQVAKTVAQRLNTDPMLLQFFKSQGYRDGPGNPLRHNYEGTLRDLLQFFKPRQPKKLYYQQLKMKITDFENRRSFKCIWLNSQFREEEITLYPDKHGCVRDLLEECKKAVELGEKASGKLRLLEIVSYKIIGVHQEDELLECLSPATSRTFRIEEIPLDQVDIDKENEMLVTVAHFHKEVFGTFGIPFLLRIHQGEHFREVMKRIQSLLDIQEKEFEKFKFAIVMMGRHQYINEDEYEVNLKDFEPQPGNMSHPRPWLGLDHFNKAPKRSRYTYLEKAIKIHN
UniProt Q16665: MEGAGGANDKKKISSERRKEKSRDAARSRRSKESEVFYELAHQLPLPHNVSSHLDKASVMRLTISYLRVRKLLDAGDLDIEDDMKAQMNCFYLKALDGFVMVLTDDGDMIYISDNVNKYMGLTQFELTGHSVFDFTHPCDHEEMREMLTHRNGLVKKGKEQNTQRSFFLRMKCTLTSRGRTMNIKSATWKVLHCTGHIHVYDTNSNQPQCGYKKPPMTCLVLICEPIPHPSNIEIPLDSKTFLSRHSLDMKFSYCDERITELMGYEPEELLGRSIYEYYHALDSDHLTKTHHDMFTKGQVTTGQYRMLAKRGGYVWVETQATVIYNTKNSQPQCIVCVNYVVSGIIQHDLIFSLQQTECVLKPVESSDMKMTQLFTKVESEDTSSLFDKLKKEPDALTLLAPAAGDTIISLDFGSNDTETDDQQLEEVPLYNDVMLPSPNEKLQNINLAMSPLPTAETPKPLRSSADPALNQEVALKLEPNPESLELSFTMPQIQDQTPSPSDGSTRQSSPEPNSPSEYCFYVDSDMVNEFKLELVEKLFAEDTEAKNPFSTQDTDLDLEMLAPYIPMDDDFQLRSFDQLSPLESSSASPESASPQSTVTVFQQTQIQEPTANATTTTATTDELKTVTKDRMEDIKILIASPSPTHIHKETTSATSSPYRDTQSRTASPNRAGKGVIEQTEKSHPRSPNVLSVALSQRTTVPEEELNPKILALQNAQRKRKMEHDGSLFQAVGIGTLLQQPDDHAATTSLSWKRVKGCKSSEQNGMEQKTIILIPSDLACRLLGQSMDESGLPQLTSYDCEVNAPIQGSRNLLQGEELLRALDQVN

Target: HA-USP7 (UniProt Q93009)
Test: affinity purification with mass spectrometry; immunoprecipitation from HEK293T cells overexpressing HA-USP7, followed by mass spectrometry

HIF-1α (endogenous, HEK293T) (from UniProt Q16665 1-826)
binding: binds

No constants are given. Whether binding was seen depends on the method and setting. Binding seen in cells or lysates may run through a third protein. A yes stands for co-enrichment or nearness to the bait. Other partners may have been found.
